Results are given in words; binding and its absence hold for the method and conditions named. Binding can be weak; no strength is given. For part of these data: Binding seen in cells or lysates may run through a third protein. For part of these data: Tags and fused reporters may be left off the sequences shown.
B1: FLAG-tagged Toc33 (receptor, UniProt O23680 1-297)
chain: MGSLVREWVGFQQFPAATQEKLIEFFGKLKQKDMNSMTVLVLGKGGVGKSSTVNSLIGEQVVRVSPFQAEGLRPVMVSRTMGGFTINIIDTPGLVEAGYVNHQALELIKGFLVNRTIDVLLYVDRLDVYRVDELDKQVVIAITQTFGKEIWCKTLLVLTHAQFSPPDELSYETFSSKRSDSLLKTIRAGSKMRKQEFEDSAIAVVYAENSGRCSKNDKDEKALPNGEAWIPNLVKAITDVATNQRKAIHVDKKMVDGSYSDDKGKKLIPLIIGAQYLIVKMIQGAIRNDIKTSGKPL
B2: FLAG-tagged Toc34 (receptor, UniProt Q38906 1-313)
chain: MAALQTLREWIGIQQFPPATQSKLLEILGKYKEEDVSSLTVLVMGKGGVGKSSTVNSVIGEKAAAVSTFQSEGLRPTLVSRTRSGFTLNIIDTPGLIEGGYVNDQAINIIKRFLLNMTIDVLLYVDRLDVYRVDDLDRQVVGAITDAFGKEIWKKSALVLTHAQFSPPDGLNYNHFVSKRSNALLKVIQTGAQLKKQDLQGFSIPVILVENSGRCHKNESDEKILPCGTSWIPNLFNKITEISFNGNKAIHVDKKLVEGPNPNERGKKLIPLMFAFQYLLVMKPLVRAIKSDVSRESKPAWELRDSGLASRRS
B3: FLAG-tagged Tom20-2 (receptor, UniProt P82873 1-210)
chain: MEFSTADFERLIMFEHARKNSEAQYKNDPLDSENLLKWGGALLELSQFQPIPEAKLMLNDAISKLEEALTINPGKHQALWCIANAYTAHAFYVHDPEEAKEHFDKATEYFQRAENEDPGNDTYRKSLDSSLKAPELHMQFMNQGMGQQILGGGGGGGGGGMASSNVSQSSKKKKRNTEFTYDVCGWIILACGIVAWVGMAKSLGPPPPAR
B4: FLAG-tagged Tom20-4 (receptor, UniProt P82805 1-187)
chain: MDMQNENERLMVFEHARKVAEATYVKNPLDAENLTRWAGALLELSQFQTEPKQMILEAILKLGEALVIDPKKHDALWLIGNAHLSFGFLSSDQTEASDNFEKASQFFQLAVEEQPESELYRKSLTLASKAPELHTGGTAGPSSNSAKTMKQKKTSEFKYDVFGWVILASYVVAWISFANSQTPVSRQ
B5: FLAG-tagged PAP2 (protein, UniProt Q9LMG7 20-656)
chain: ADSKATISISPNALNRSGDSVVIQWSGVDSPSDLDWLGLYSPPESPNDHFIGYKFLNESSTWKDGFGSISLPLTNLRSNYTFRIFRWSESEIDPKHKDHDQNPLPGTKHLLAESEQLTFGSGVGMPEQIHLSFTNMVNTMRVMFVAGDGEERFVRYGESKDLLGNSAAARGMRYEREHMCDSPANSTIGWRDPGWIFDTVMKNLNDGVRYYYQVGSDSKGWSEIHSYIARDVTAEETVAFMFGDMGCATPYTTFIRTQDESISTVKWILRDIEALGDKPAMISHIGDISYARGYSWVWDEFFAQVEPIASTVPYHVCIGNHEYDFSTQPWKPDWAASIYGNDGGGECGVPYSLKFNMPGNSSESTGMKAPPTRNLYYSYDMGTVHFVYISTETNFLKGGSQYEFIKRDLESVDRKKTPFVVVQGHRPMYTTSNEVRDTMIRQKMVEHLEPLFVKNNVTLALWGHVHRYERFCPISNNTCGTQWQGNPVHLVIGMAGQDWQPIWQPRPNHPDLPIFPQPEQSMYRTGEFGYTRLVANKEKLTVSFVGNHDGEVHDTVEMLASGVVISGSKESTKIPNLKTVPASATLMGKSESNALWYAKGAGLMVVGVLLGFIIGFFTRGKKSSSGNRWIPVKNEET
B6: FLAG-tagged SP1 (enzyme, UniProt Q8L7N4 1-343)
chain: MIPWGGVTCCLSAAALYLLGRSSGRDAEVLETVTRVNQLKELAQLLELDSKILPFIVAVSGRVGSETPIKCEHSGIRGVIVEETAEQHFLKHNETGSWVQDSALMLSMSKEVPWFLDDGTSRVHVMGARGATGFALTVGSEVFEESGRSLVRGTLDYLQGLKMLGVKRIERVLPTGIPLTIVGEAVKDDIGEFRIQKPDRGPFYVSSKSLDQLISNLGKWSRLYKYASMGFTVLGVFLITKHVIDSVLERRRRRQLQKRVLDAAAKRAELESEGSNGTRESISDSTKKEDAVPDLCVICLEQEYNAVFVPCGHMCCCTACSSHLTSCPLCRRRIDLAVKTYRH
B7: FLAG-tagged RPN6 (protein, UniProt Q9LP45 1-419)
chain: MVSYRATTETISLALEANSSEAITILYQVLEDPSSSPEAIRIKEQAITNLCDRLTEEKRGEDLRKLLTKLRPFFSLIPKAKTAKIVRGIIDAVAKIPGTTDLQITLCKEMVEWTRAEKRTFLRQRVEARLAALLMENKEYVEALALLSTLVKEVRRLDDKLLLVDIDLLESKLHFSLRNLPKAKAALTAARTAANAIYVPPAQQGTIDLQSGILHAEEKDYKTGYSYFFEAFESFNALGDPRAVFSLKYMLLCKIMVSQADDVAGIISSKAGLQYVGPDLDAMKAVADAHSKRSLKLFENALRDYKAQLEDDPIVHRHLSSLYDTLLEQNLCRLIEPFSRVEIAHIAELIGLPLDHVEKKLSQMILDKKFAGTLDQGAGCLIIFEDPKADAIYSATLETIANMGKVVDSLYVRSAKIMS
B8: FLAG-tagged RPN10 (protein, UniProt P55034 1-386)
chain: MVLEATMICIDNSEWMRNGDYSPSRLQAQTEAVNLLCGAKTQSNPENTVGILTMAGKGVRVLTTPTSDLGKILACMHGLDVGGEINLTAAIQIAQLALKHRQNKNQRQRIIVFAGSPIKYEKKALEIVGKRLKKNSVSLDIVNFGEDDDEEKPQKLEALLTAVNNNDGSHIVHVPSGANALSDVLLSTPVFTGDEGASGYVSAAAAAAAAGGDFDFGVDPNIDPELALALRVSMEEERARQEAAAKKAADEAGQKDKDGDTASASQETVARTTDKNAEPMDEDSALLDQAIAMSVGDVNMSEAADEDQDLALALQMSMSGEESSEATGAGNNLLGNQAFISSVLSSLPGVDPNDPAVKELLASLPDESKRTEEEESSSKKGEDEKK
B9: full length Toc33 (Toc33FL, a.a. 1-297), non-ubiquitinated (receptor, UniProt O23680 1-297)
chain: MGSLVREWVGFQQFPAATQEKLIEFFGKLKQKDMNSMTVLVLGKGGVGKSSTVNSLIGEQVVRVSPFQAEGLRPVMVSRTMGGFTINIIDTPGLVEAGYVNHQALELIKGFLVNRTIDVLLYVDRLDVYRVDELDKQVVIAITQTFGKEIWCKTLLVLTHAQFSPPDELSYETFSSKRSDSLLKTIRAGSKMRKQEFEDSAIAVVYAENSGRCSKNDKDEKALPNGEAWIPNLVKAITDVATNQRKAIHVDKKMVDGSYSDDKGKKLIPLIIGAQYLIVKMIQGAIRNDIKTSGKPL
B10: ubiquitinated Toc33FL (a.a. 1-297) (receptor, UniProt O23680 1-297)
chain: MGSLVREWVGFQQFPAATQEKLIEFFGKLKQKDMNSMTVLVLGKGGVGKSSTVNSLIGEQVVRVSPFQAEGLRPVMVSRTMGGFTINIIDTPGLVEAGYVNHQALELIKGFLVNRTIDVLLYVDRLDVYRVDELDKQVVIAITQTFGKEIWCKTLLVLTHAQFSPPDELSYETFSSKRSDSLLKTIRAGSKMRKQEFEDSAIAVVYAENSGRCSKNDKDEKALPNGEAWIPNLVKAITDVATNQRKAIHVDKKMVDGSYSDDKGKKLIPLIIGAQYLIVKMIQGAIRNDIKTSGKPL
modifications: ubiquitinated (in vitro, by SP1flex); sites not stated, in the receptor domain
B11: Toc33 without the C-terminus (Toc33NC, a.a. 1-251), non-ubiquitinated (domain or fragment, UniProt O23680 1-251)
chain: MGSLVREWVGFQQFPAATQEKLIEFFGKLKQKDMNSMTVLVLGKGGVGKSSTVNSLIGEQVVRVSPFQAEGLRPVMVSRTMGGFTINIIDTPGLVEAGYVNHQALELIKGFLVNRTIDVLLYVDRLDVYRVDELDKQVVIAITQTFGKEIWCKTLLVLTHAQFSPPDELSYETFSSKRSDSLLKTIRAGSKMRKQEFEDSAIAVVYAENSGRCSKNDKDEKALPNGEAWIPNLVKAITDVATNQRKAIHVD
B12: ubiquitinated Toc33NC (a.a. 1-251) (domain or fragment, UniProt O23680 1-251)
chain: MGSLVREWVGFQQFPAATQEKLIEFFGKLKQKDMNSMTVLVLGKGGVGKSSTVNSLIGEQVVRVSPFQAEGLRPVMVSRTMGGFTINIIDTPGLVEAGYVNHQALELIKGFLVNRTIDVLLYVDRLDVYRVDELDKQVVIAITQTFGKEIWCKTLLVLTHAQFSPPDELSYETFSSKRSDSLLKTIRAGSKMRKQEFEDSAIAVVYAENSGRCSKNDKDEKALPNGEAWIPNLVKAITDVATNQRKAIHVD
modifications: ubiquitinated (in vitro, by SP1flex); sites not stated

Key:
[1] = molecular target: GFP-TTOP (Arabidopsis thaliana); assay: co-IP
[2] = molecular target: GST-TTOP (Arabidopsis thaliana) (UniProt F4K1H0); assay: pull-down

Row | Binder | binding [1] | binding [2]
1 | B1 | binds | –
2 | B2 | binds | –
3 | B3 | binds | –
4 | B4 | binds | –
5 | B5 | binds | –
6 | B6 | binds | –
7 | B7 | binds | –
8 | B8 | binds | –
9 | B9 | – | binds
10 | B10 | – | binds
11 | B11 | – | no binding
12 | B12 | – | no binding

From article doi:10.1101/2023.01.07.523072
